Data on one substance can be found in article PMC2567031.

Sequences of proteins named here, by UniProt entry; tags and fusion partners are left off. A change or cut given only in a name is not applied to a line headed by its entry. Residues count along the entry.
UniProt P56480, residues 47-529: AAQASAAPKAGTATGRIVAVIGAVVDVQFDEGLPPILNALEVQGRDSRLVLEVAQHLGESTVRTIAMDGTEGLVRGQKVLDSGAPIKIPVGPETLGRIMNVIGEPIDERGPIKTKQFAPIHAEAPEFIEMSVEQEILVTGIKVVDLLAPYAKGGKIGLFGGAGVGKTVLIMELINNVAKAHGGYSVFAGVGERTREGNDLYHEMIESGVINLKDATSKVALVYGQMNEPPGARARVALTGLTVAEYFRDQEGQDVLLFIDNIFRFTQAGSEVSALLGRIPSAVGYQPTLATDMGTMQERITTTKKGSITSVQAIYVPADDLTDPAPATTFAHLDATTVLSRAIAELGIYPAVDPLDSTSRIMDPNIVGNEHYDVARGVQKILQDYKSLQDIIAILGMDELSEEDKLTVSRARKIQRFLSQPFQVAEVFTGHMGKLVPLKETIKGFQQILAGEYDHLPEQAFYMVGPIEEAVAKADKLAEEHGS
UniProt P00441: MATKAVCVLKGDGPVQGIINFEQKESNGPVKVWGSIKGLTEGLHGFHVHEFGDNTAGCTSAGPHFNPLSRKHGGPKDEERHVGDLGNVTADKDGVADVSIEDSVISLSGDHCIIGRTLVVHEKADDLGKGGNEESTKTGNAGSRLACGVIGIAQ

These are yes or no findings as the source states them, for the method shown. Binding seen in cells or lysates may run through a third protein. Binding can be weak; no strength is given.

The target in this assay is ATP synthase β subunit (mouse (endogenous in mouse spinal cord)) (UniProt P56480). The experiment in a line: co-IP; mouse spinal cord extracts; precipitation with antibodies to ATP1A, Hsp/Hsc70 or ATP5B on protein A/G plus-agarose; blots for hSOD1 or uSOD1.

Take “SOD1^Leu126delTT with a FLAG sequence at C terminal (DF mutant SOD1) (from UniProt P00441)”: the binding result is on record as “binds”.
